In this assay the target is endogenous 53BP1 (p53 binding protein 1) (human (endogenous in 293T)) (UniProt Q12888). Description: co-IP; chromatin-enriched fraction (P3) of transfected 293T cells, extracted with NETN, immunoprecipitation and immunoblotting; mock or bleomycin (10 μg/ml); in some panels siLSD1 and re-expression of HA-LSD1 or its mutants. A general note: Immunoblotting shows a protein as a band on a membrane.

Sequences of proteins named here, by UniProt entry; tags and fusion partners are left off.
UniProt Q12888: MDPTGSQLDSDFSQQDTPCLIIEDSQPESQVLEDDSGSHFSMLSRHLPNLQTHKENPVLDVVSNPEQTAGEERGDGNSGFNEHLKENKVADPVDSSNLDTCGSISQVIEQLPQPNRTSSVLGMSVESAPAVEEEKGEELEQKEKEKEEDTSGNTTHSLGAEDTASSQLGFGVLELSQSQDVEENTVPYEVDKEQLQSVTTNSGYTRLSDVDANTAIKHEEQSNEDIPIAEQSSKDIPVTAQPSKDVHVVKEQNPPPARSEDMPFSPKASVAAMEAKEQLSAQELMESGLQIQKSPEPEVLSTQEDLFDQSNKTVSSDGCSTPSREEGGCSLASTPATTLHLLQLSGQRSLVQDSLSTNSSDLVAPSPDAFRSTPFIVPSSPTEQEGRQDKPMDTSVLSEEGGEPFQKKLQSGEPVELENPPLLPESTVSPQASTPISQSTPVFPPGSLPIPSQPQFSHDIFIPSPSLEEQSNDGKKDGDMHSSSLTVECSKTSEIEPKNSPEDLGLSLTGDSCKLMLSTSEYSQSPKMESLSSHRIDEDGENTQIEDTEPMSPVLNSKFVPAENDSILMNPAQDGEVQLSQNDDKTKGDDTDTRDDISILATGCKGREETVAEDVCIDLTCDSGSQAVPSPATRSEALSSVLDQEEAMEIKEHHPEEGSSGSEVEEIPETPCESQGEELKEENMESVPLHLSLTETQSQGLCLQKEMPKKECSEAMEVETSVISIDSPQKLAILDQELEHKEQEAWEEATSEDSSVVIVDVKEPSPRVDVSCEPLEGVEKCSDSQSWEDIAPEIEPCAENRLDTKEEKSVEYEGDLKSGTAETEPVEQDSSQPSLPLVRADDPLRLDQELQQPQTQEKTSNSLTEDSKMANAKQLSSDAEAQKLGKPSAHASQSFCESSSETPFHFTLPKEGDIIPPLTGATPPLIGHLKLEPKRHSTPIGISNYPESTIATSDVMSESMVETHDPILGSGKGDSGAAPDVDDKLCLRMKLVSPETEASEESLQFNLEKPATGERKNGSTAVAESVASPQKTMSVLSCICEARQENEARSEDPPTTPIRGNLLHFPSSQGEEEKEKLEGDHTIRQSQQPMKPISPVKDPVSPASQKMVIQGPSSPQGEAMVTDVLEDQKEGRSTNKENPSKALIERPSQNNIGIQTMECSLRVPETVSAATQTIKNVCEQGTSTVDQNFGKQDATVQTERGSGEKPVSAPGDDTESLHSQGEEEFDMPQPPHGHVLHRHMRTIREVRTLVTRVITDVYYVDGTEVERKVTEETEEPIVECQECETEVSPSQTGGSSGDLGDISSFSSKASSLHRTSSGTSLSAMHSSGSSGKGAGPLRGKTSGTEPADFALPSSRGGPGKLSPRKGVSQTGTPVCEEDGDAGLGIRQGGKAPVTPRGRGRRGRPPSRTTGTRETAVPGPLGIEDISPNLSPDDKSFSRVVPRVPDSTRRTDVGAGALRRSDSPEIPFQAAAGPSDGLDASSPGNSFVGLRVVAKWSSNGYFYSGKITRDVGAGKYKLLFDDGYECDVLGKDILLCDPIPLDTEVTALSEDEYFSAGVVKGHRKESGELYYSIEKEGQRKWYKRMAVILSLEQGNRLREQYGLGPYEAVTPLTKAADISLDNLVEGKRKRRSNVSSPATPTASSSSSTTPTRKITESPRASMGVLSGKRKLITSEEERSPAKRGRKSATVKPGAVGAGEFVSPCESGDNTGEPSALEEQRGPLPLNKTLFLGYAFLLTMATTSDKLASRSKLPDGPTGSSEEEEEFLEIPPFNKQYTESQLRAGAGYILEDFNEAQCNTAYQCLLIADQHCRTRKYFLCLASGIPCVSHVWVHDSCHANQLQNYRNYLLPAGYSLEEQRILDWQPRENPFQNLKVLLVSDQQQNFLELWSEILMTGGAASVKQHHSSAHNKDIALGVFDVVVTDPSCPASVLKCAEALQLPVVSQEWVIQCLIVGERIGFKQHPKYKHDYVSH
UniProt Q8IYW5: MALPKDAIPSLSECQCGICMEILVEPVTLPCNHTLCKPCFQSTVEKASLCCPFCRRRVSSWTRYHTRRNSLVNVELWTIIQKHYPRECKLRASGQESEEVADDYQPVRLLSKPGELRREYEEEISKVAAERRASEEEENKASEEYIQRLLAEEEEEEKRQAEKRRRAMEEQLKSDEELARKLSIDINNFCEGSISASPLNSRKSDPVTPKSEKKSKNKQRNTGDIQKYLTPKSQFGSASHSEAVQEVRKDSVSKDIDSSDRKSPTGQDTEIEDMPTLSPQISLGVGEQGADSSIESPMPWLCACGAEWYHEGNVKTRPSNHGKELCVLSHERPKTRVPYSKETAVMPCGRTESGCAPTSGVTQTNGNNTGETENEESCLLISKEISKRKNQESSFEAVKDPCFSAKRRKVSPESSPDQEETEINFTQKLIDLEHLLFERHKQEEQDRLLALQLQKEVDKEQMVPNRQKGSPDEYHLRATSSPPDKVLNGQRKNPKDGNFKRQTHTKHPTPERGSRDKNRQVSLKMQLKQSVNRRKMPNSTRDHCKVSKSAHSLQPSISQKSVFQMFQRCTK

No constants are given. Whether binding was seen depends on the method and setting. In cells and extracts the contact can be indirect. Some results given as binding are weak or reduced against the parent protein; the word gives no strength.

For FLAG-RNF168 (from UniProt Q8IYW5 1-571), the binding entry is on record as “binds”.

The record behind these values is publication PMC4499147.
